In paper PMC5794803, “IGFBPL1 Regulates Axon Growth through IGF-1-mediated Signaling Cascades” (Scientific Reports, 2018):
These are yes or no findings as the source states them, for the method shown. Binding seen in cells or lysates may run through a third protein. Some entries that bind do so weakly or less than the wild type.

Protein sequences, listed by entry. Tags and fused reporters are not part of them. Residues count along the entry.
UniProt P05017, residues 49-118: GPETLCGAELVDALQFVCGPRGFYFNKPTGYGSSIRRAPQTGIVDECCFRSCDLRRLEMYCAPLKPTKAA

T1: IGFBPL1, endogenous in newborn mouse retina (mouse (endogenous in P0 retina)) (UniProt Q80W15)
T1 sequence: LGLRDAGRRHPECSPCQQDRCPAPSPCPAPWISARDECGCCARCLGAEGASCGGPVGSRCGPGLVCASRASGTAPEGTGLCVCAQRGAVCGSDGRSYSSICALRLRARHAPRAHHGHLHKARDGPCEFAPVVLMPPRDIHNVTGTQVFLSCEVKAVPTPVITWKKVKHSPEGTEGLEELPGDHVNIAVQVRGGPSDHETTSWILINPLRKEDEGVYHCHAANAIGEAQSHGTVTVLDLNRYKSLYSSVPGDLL


Assays:
[1] = target: T1, IGFBPL1, endogenous in newborn mouse retina (mouse (endogenous in P0 retina)); assay: co-IP; pre-cleared retinal lysate of P0 mouse pups; goat anti-IGFBPL1 or goat anti-IGF-1 antibody coupled to resin (Pierce Co-IP kit), 4 °C overnight, Western blot
[2] = target: IGF-1, endogenous in newborn mouse retina (mouse (endogenous in P0 retina)) (UniProt P05017); assay: as above

| binding [1] | binding [2] | Molecule |
| --- | --- | --- |
| binds | – | IGF-1, endogenous in newborn mouse retina (from UniProt P05017 49-118) (ligand) |
| – | binds | recombinant mouse IGFBPL1 (insulin-like growth factor binding protein-like 1) (natural protein, UniProt Q80W15 18-270, looked up) LGLRDAGRRHPECSPCQQDRCPAPSPCPAPWISARDECGCCARCLGAEGASCGGPVGSRCGPGLVCASRASGTAPEGTGLCVCAQRGAVCGSDGRSYSSICALRLRARHAPRAHHGHLHKARDGPCEFAPVVLMPPRDIHNVTGTQVFLSCEVKAVPTPVITWKKVKHSPEGTEGLEELPGDHVNIAVQVRGGPSDHETTSWILINPLRKEDEGVYHCHAANAIGEAQSHGTVTVLDLNRYKSLYSSVPGDLL |
